Reference: PubChem BioAssay AID652241 (Broad Institute, 2013)
Inconclusive means that the source gave no clear call. Such entries were picked first, then a sample of the others. Activity calls are given as the source filed them.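 Rule for the calls: active = fitted curve reaches activity 50 in the expected rising direction at or below the top valid tested dose; inconclusive = no clear call, values can overlap the other calls; inactive = activity in the wrong direction, and the rest.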

The chains behind the UniProt entries cited, without tags or fusion partners. Where a name states a change or a piece, a line headed by the entry shows the natural chain unless it says otherwise.
UniProt P69720: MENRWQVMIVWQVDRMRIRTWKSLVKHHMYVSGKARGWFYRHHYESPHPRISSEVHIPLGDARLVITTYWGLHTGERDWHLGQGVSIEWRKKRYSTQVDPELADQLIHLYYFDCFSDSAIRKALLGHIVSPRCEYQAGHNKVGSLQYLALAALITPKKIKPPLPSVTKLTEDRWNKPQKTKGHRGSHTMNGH
UniProt P69721: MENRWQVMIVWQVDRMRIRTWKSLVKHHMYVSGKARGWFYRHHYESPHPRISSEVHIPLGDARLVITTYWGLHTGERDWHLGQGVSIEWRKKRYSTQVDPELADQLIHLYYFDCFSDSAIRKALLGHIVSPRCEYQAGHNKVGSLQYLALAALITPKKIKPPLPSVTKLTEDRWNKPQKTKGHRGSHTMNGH
UniProt P69722: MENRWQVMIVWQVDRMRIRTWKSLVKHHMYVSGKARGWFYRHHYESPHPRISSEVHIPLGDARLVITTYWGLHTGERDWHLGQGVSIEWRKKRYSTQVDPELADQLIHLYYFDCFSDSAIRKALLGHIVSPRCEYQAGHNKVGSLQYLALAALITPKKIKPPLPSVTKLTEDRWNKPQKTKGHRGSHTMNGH
UniProt P69723: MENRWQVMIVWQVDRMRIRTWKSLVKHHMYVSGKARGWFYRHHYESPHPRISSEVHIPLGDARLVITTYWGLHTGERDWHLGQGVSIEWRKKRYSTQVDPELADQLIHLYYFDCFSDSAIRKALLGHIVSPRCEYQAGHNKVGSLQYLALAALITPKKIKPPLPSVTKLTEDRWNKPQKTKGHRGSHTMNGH

Each compound was assayed against Virion infectivity factor (Human immunodeficiency virus type 1 group M subtype B (isolate BH10)) + Virion infectivity factor (Human immunodeficiency virus type 1 group M subtype B (isolate BRU/LAI)) + Virion infectivity factor (Human immunodeficiency virus type 1 group M subtype B (isolate PCV12)) + Virion infectivity factor (Human immunodeficiency virus type 1 group M subtype B (isolate HXB2)) (UniProt P69720+P69721+P69722+P69723) (assay: dose-dependent disruption of HIV Vif self-association – imaging, HEK293T, cherry-picks, dose response (AID 652241;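 note: imaged cell signal that rises when Vif self-association is disrupted; plate controls were median of neutral control wells for no effect and median of positive control wells for full effect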)). Conditions: HEK293T Vif multimerization imaging, 24 h; at 6.8 µM (top of the series) unless noted.
`CCOc1ccc(C(=O)c2cc([N+](=O)[O-])ccc2N2CCOCC2)cc1` was tested, and the activity, higher = inhibition was inconclusive: 78.4% [at 2.1 µM]. In the case of `O=C(NCC1CC1)NC(=O)c1c(F)cccc1Cl`, the activity, higher = inhibition is reported as inactive: -10.2% [at 19.5 µM]. In the case of `CCOc1ccc2nc(NS(=O)(=O)Cc3ccccc3)sc2c1`, the activity, higher = inhibition is reported as inconclusive: 60.1%. With `Cc1nc(-c2ccccc2OC(F)(F)F)[nH]c(=O)c1Cl` the activity, higher = inhibition was inactive: -1.89% [at 19.5 µM]. In the case of `O=C(NCc1ccc(OC(F)(F)F)cc1)c1cccc2c1C(=O)c1ccc(N3CCCCC3)cc1S2(=O)=O`, the activity, higher = inhibition is reported as inconclusive: 30.4%. `Cc1c(NC(=O)CC(O)(C(F)(F)F)C(F)(F)F)c(=O)n(-c2ccccc2)n1C` was tested, and the activity, higher = inhibition was inactive: -13% [at 19.5 µM]. `COc1ccc(-c2cc(C(F)(F)F)nc(S(=O)(=O)CCCC(=O)Nc3cccnc3Cl)n2)cc1OC` was tested, and the activity, higher = inhibition was inconclusive: 43%. For `COc1ccc(-c2cc(C(F)(F)F)nc(S(=O)(=O)CCCC(=O)Nc3cc(C)on3)n2)cc1OC`, the activity, higher = inhibition was inconclusive: 59%. In the case of `CCCCn1c(-c2ccncc2)nc2c1c(=O)[nH]c(=O)n2CC(C)C`, the activity, higher = inhibition is reported as inactive: -9.09% [at 19.5 µM]. `CCCCN1C(=O)/C(=C/C=C2\Oc3ccccc3N2CC)SC1=S` was tested, and the activity, higher = inhibition was inconclusive: 62.2% [at 2.1 µM]. With `COC(=O)Nc1nc2ccc(Sc3ccccc3)cc2[nH]1` the activity, higher = inhibition was inconclusive: 60.9% [at 19.5 µM]. For `Nc1c(C(=O)Nc2ccc(S(=O)(=O)N3CCCC3)cc2)sc2nc3ccc(OC(F)(F)F)cc3cc12`, the activity, higher = inhibition was inconclusive: 52.9%. In the case of `CN(C)c1ccc(C(=O)c2ccc(N(C)C)c3ccccc23)cc1`, the activity, higher = inhibition is reported as inconclusive: 63.7% [at 0.75 µM]. With `COc1ccc(/C=c2\s/c(=C/C(=O)c3ccc(C)cc3)[nH]c2=O)c(OC)c1` the activity, higher = inhibition was inconclusive: 67.5%. For `CCC1=Nc2cc(C(=O)NCc3ccco3)ccc2Sc2ccc(C)cc21`, the activity, higher = inhibition was inconclusive: 43% [at 2.1 µM]. With `COc1cc(-c2cnc3c(NC=O)cc(-c4cccc(NC(C)=O)c4)cn23)cc(OC)c1OC` the activity, higher = inhibition was inconclusive: 38.5% [at 2.1 µM]. `COc1ccccc1N1C(=O)c2cccc3c(N(C)CCO)ccc(c23)C1=O` was tested, and the activity, higher = inhibition was inconclusive: 30.4%. `Cc1cc(NC(=O)c2cncc(Br)c2)ccc1NC(=O)c1cc2ccccc2o1` was tested, and the activity, higher = inhibition was inconclusive: 74.3%. For `COc1cc(NC(=O)c2ccc(C)cc2C)ccc1NC(=O)c1cccs1`, the activity, higher = inhibition was inactive: -19% [at 19.5 µM]. In the case of `CCc1nn(-c2cc(Oc3cccc4ccccc34)nc(-c3ccccc3)n2)c(N)c1C#N`, the activity, higher = inhibition is reported as inconclusive: 56.9%. In the case of `C=CC(=O)N1C/C(=C/c2ccc(F)cc2)C(=O)/C(=C\c2ccc(F)cc2)C1`, the activity, higher = inhibition is reported as inconclusive: 118% [at 2.1 µM]. In the case of `CN(C)c1ccc(/C=C2\SC(N3CCCCC3)=NC2=O)cc1`, the activity, higher = inhibition is reported as inconclusive: 163% [at 19.5 µM]. In the case of `COc1ccc2cc(CCNS(=O)(=O)c3ccc(NC(C)=O)cc3)c(=O)[nH]c2c1`, the activity, higher = inhibition is reported as inactive: -4% [at 19.5 µM]. For `COc1ccc2nc3ccccc3nc2c1NC(=O)c1ccc(Cl)cc1`, the activity, higher = inhibition was inconclusive: 45.6%. For `Cc1cc(/C=C2\NC(=S)N(C)C2=O)ccc1N1CCCC1`, the activity, higher = inhibition was inconclusive: 128%. In the case of `CCN(CC)c1ccc2cc(-c3nnc(-c4ccccc4)o3)c(=O)oc2c1`, the activity, higher = inhibition is reported as inconclusive: 60.5% [at 0.75 µM]. For `CN(C)c1ccc(/C=C2\SC(=O)N(CCc3nnc(N)s3)C2=O)cc1`, the activity, higher = inhibition was inconclusive: 32%. For `CCN(C(=O)COc1ccc(C)cc1OC)c1cccc2ccccc12`, the activity, higher = inhibition was inactive: -19.3% [at 19.5 µM].
